In patent publication US20050123939:
pKd: −log10 of the molar value. For part of these data: No signal at the amounts used counts as a negative. Where a protein sequence is shown, tags need not be part of it. The exact form of at least one protein or probe is not confirmed.

Columns and labels:
NF-kB p50/p50 homodimer = molecular target: T1, NF-kB p50/p50 homodimer (UniProt P19838); test: SELEX; conditions: purified recombinant protein, protein details: Alexa Fluor 488 labeled, label: bead
T1 sequence (looked up, limits assumed): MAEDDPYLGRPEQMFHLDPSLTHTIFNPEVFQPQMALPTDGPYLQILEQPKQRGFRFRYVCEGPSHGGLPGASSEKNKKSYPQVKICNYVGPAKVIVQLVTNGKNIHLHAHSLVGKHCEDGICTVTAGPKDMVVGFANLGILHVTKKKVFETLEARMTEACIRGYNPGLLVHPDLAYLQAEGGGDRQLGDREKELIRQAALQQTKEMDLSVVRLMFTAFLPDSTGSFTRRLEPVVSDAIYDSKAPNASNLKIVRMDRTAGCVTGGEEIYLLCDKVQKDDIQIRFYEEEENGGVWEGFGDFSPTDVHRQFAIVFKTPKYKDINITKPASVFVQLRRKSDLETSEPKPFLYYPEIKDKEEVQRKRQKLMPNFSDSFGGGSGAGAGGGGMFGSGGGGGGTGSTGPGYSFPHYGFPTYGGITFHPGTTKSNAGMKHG

[1] = molecular target: T2, NF-kB p50 (unlabeled, detected by anti-NF-kB antibody) (UniProt P19838); test: SELEX; conditions: purified recombinant protein, label: bead
T2 sequence (looked up, limits assumed): T1 sequence (looked up, limits assumed)

[2] = molecular target: T2, NF-kB p50 (unlabeled, detected by anti-NF-kB antibody); test: binding assay; conditions: CITED earlier studies, purified recombinant protein
[3] = 3'-thioates as in Table 2, complement unmodified
[4] = 3'-dithioates as in Table 2, complement unmodified

AGTCAAGTCGAAGTTCCACGGT (double strand) [S-ODN selected 4]
selection result (NF-kB p50/p50 homodimer; [3]): selected

AGTTGAGTCGAAGGACCCATTT (double strand) [S-ODN selected 2]
selection result (NF-kB p50/p50 homodimer; [3]): selected

ATGTAGCCAAAGGTGGAACCCC (double strand) [E008 selected 2]
selection result ([1]; 3'-dithioate at a10,g16,a17): selected

ATGTAGCCAGCTAGTCTGTCAG (double strand) [S2-ODN selected 1]
selection result (NF-kB p50/p50 homodimer; no dithioate linkages): selected

ATGTAGCCGAAGGTGGAACCCC (double strand) [S2-ODN selected 4]
selection result (NF-kB p50/p50 homodimer; [4]): selected

CGCCAGCCAAAGGTGCTGTCAG (double strand) [S2-ODN selected 2]
selection result (NF-kB p50/p50 homodimer; [4]): selected

CGCCAGCCGAAGGTGCTGTCAG (double strand) [E008 selected 1]
selection result ([1]; 3'-dithioate at a10): selected

CGCCAGCCGAAGGTGGAACCCC (double strand) [S2-ODN selected 5]
selection result (NF-kB p50/p50 homodimer; [4]): selected

CGCCCAGTAGCTAGTCTGTCAG (double strand) [E008 selected 4]
selection result ([1]; 3'-dithioate at c5): selected

CGCCCAGTGAAGGTGCTGTCAG (double strand) [E008 selected 3]
selection result ([1]; 3'-dithioate at c5,g9,a10): selected

CGCCCAGTGGCTAGTGAACCCC (double strand) [S2-ODN selected 3]
selection result (NF-kB p50/p50 homodimer; [4]): selected

CGTCAAGTCTCAGTTCCCATTT (double strand) [S-ODN selected 3]
selection result (NF-kB p50/p50 homodimer; [3]): selected

GGGGTTCCACCTTCACTGGGCG (double strand) [chemically synthesized p50 thioaptamer]
pKd ([2]; monothiophosphate 5' to each dA residue (diastereomeric mixture), diastereomeric mixture): > 7.70

GGGGTTCCACCTTCACTGGGCG (double strand) [in vitro selected p50 thioaptamer clone (enzymatic)]
pKd ([2]; monothiophosphate 5' to each dA residue (chiral, enzymatic), apparent Kd, 15 rounds of selection): > 8.30

GGGGTTCCACCTTCACTGGGCG (double strand) [normal phosphate backbone version of 15th round clone]
binding result ([2]; no binding of normal phosphoryl backbone, cited from earlier work): no binding
